Assay results: publication PMC10463865

Target: GST-EspE3 (Escherichia coli (avian pathogenic, strain AE81))
Assay: affinity purification with mass spectrometry; GST pull-down: 125 ug GST-EspE3 (bait) held on GST agarose, 200 ug CTE cell lysate protein (prey), 4 C overnight; eluate on SDS-PAGE, silver stain, bands by HPLC and MS; compared with controls without bait and without prey; only the target purified

B1: SEM3A (protein, UniProt Q90607 23-772)
chain: QHVKNNVPRLKLSYKEMLESNNIVNFNGLANSSSYHTFLLDEERSRLYVGAKDHIFSFNLVNIKEYQKIVWPVSHSRRDECKWAGKDILRECANFIKVLKTYNQTHLYACGTGAFHPMCTYIEVGSHPEDNIFRMEDSHFENGRGKSPYDPKLLTASLLVDGELYSGTAADFMGRDFAIFRTLGHHHPIRTEQHDSRWLNDPRFISAHLIPESDNPEDDKIYFFFRENAIDGEHTGKATHARIGQICKNDFGGHRSLVNKWTTFLKARLICSVPGPNGIDTHFDELQDVFLMNSKDPKNPIVYGVFTTSSNIFKGSAVCMYSMTDVRRVFLGPYAHRDGPNYQWVPYQGRVPYPRPGTCPSKTFGGFDSTKDLPDEVITFARSHPAMYNPVFPINSRPIMIKTDVDYQFTQIVVDRVDAEDGQYDVMFIGTDIGTVLKVVSIPKETWHELEEVLLEEMTVFREPTVISAMKISTKQQQLYIGSATGVSQLPLHRCDVYGKACAECCLARDPYCAWDGSSCSRYFPTAKRRTRRQDIRNGDPLTHCSDLQHHDNPSGQTLEEKIIYGVENSSTFLECSPKSQRAIVYWQFQKQNDDHKVEIKVDDRMIRTEQGLLLRSLQRRDSGIYFCHAVEHGFIQTLLKVTLEVIDTDHLEELLHKEEDADASKTKDATNSMTPSQKIWYRDFMQLINHPNLNTMDEFCEQVWKRDRKQRRQRPANAQVNTNKWKHLQENKKGRNRRTHEFERAPRSV
binding: binds

These are yes or no findings as the source states them, for the method shown. Binding seen in cells or lysates may run through a third protein. These calls come from enrichment with a bait or labelling near it, and not all partners need be listed.
